{"sequences": {"note": "Chains of the proteins cited; added tags and fusions are not shown.", "UniProt Q94517": "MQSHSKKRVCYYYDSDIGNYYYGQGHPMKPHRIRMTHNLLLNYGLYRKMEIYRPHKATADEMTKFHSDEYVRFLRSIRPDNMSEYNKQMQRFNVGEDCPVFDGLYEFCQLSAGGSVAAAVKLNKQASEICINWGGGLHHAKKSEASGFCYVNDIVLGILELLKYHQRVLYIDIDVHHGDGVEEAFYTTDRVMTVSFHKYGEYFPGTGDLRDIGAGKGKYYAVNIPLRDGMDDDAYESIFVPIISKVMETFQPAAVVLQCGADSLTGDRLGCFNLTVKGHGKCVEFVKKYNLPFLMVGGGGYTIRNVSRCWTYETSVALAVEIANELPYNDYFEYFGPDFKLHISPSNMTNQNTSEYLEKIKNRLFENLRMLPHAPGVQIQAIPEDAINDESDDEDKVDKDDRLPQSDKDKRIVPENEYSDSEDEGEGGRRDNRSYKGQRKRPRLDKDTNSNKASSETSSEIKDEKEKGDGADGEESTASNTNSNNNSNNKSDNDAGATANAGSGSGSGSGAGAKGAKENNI", "UniProt O97159": "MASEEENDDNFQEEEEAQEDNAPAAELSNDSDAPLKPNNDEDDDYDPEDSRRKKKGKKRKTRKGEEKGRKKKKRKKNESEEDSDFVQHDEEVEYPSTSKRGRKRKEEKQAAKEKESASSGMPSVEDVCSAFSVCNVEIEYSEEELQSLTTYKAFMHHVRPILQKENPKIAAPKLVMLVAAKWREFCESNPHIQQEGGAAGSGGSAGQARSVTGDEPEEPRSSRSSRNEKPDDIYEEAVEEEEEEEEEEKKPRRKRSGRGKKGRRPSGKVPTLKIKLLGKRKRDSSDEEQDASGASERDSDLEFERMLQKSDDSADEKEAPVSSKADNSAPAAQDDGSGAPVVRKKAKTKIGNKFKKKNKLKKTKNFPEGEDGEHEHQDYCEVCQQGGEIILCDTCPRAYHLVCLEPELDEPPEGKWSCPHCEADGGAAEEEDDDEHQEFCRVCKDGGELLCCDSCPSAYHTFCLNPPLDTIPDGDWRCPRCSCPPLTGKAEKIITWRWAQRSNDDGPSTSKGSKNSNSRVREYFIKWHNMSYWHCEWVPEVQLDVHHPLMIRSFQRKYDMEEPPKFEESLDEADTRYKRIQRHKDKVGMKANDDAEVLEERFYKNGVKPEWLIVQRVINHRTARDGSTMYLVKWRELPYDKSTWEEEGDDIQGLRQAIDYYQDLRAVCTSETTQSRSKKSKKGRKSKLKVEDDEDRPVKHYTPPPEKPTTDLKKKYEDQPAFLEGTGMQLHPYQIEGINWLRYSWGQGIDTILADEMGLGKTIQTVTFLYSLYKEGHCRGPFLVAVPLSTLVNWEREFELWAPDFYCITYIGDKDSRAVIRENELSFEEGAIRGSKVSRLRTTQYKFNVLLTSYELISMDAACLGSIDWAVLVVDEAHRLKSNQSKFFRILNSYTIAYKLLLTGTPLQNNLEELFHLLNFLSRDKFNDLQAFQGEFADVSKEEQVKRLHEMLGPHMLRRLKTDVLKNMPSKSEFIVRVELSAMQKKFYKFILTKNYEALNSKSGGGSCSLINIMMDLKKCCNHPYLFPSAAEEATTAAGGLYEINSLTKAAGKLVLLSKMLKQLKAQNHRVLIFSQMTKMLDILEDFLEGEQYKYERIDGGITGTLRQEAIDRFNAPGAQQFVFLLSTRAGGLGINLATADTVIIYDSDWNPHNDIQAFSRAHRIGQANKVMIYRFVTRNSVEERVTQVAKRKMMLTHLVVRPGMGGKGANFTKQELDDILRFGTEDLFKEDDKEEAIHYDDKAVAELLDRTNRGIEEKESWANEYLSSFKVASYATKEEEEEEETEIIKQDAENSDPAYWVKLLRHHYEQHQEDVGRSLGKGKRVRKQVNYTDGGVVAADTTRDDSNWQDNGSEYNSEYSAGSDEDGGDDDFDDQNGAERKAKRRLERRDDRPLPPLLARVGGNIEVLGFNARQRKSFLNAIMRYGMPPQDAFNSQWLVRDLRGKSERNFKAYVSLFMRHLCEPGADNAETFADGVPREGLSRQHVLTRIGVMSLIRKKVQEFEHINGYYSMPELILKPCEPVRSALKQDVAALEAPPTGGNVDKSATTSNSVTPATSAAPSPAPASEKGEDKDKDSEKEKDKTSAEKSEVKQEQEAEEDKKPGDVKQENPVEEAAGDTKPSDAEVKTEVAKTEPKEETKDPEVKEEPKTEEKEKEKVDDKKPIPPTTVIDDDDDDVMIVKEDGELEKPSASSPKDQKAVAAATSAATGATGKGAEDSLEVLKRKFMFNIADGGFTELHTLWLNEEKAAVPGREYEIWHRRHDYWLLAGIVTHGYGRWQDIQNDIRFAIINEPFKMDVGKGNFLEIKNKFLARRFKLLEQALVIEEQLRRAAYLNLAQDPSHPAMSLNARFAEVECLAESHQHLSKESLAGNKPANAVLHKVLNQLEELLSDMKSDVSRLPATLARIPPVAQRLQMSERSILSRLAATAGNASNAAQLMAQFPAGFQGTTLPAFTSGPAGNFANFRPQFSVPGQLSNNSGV"}, "source": "paper PMC2500188", "key": {"[1]": {"molecular_target": "Drosophila Smyd4 (dSmyd4), FLAG-tagged (Drosophila) (UniProt Q7JZG5)", "assay": "co-IP; S2 cells co-expressing dSmyd4-FLAG and HDAC-HA, lysed in IPB250 (20 mM Tris pH 8.0, 250 mM NaCl, 0.4% NP-40); anti-FLAG M2 sepharose 2 h at 4°C, FLAG peptide elution, anti-HA blot"}, "[2]": {"molecular_target": "Drosophila Smyd4 (dSmyd4), FLAG-tagged (Drosophila) (UniProt Q7JZG5)", "assay": "co-IP; S2 cells co-expressing dSmyd4-FLAG and an HA-tagged co-repressor component, lysed in IPB150 (20 mM Tris pH 8.0, 150 mM NaCl, 0.1% NP-40); anti-FLAG M2 sepharose 2 h at 4°C, FLAG peptide elution, anti-HA blot"}, "[3]": {"molecular_target": "GST fusion of amino acids 208-377 of dSmyd4 (GST-MYND) (Drosophila) (UniProt Q7JZG5)", "assay": "pull-down; 10 µg GST-MYND on glutathione sepharose with 35S-labelled in vitro translated protein in PDB (20 mM Tris pH 8.0, 200 mM NaCl, 50 mM KCl, 0.5% Triton X-100), 2 h at 4°C; autoradiography; only the target purified"}, "[4]": {"molecular_target": "GST fusion of amino acids 208-377 of dSmyd4 (GST-MYND) (Drosophila) (UniProt Q7JZG5)", "assay": "pull-down; 10 µg GST-MYND on glutathione sepharose with 20 µg purified his6-tagged HDAC in HisPDB (20 mM Tris pH 8.0, 150 mM NaCl, 50 mM KCl, 0.25% Triton X-100), 2 h at 4°C; anti-polyhis blot; both purified"}}, "note": "No constants are given. Whether binding was seen depends on the method and setting. A result given as binding can be weak or reduced; the word gives no strength. For some assays here: Where a sequence is shown, tags or fusion partners need not be part of it. For some assays here: In cells and extracts the contact can be indirect."}
{"molecule": "dHDAC1-HA (from UniProt Q94517 1-521)", "values": [{"measurement": "binding", "setting": "[1]", "result": "binds"}]}
{"molecule": "dMi2-HA (from UniProt O97159 1-1982)", "values": [{"measurement": "binding", "setting": "[2]", "result": "no binding"}]}
{"molecule": "in vitro translated radiolabelled dHDAC1 (from UniProt Q94517 1-521)", "values": [{"measurement": "binding", "setting": "[3]", "result": "binds"}]}
{"molecule": "recombinant dHDAC1-his6 (from UniProt Q94517 1-521)", "values": [{"measurement": "binding", "setting": "[4]", "result": "binds"}]}
{"molecule": "Ebi-HA (protein, UniProt Q95RJ9 1-700) MSFSSDEVNFLVYRYLQESGFLHSAYVFGIESHISQSNINGALVPPAALLTILQKGLLYTEVEWSVGEDGEVARPIEGLSLIDAVMPEVKPLKPIVKTEPGKPGAVDSSAPAGGNQNNNAKPEIKIEPGTGVAGSAGGNKIAGSTTGTSTPTDQSASEVDSSGNAANNAGGTYAGNNGAGGNQASTGGSNSTSTPAGGDLAAPGASQKKSQNSNEAGSSSSGNAGNANATSTDDAASSTSTNGNSSTSSSVEQPTSGLTPAGGTVSTSNPDAAASGGASTATGSKAPSGAVTIRVGAQGNNVQSGSSNAQSSAPSGTISSSTSGGAGTPAALVPMDIDENIEIPESKARVLRGHESEVFICAWNPSRDLLASGSGDSTARIWDMSDANTNSNQLVLRHCIQKGGAEVPSNKDVTSLDWNCDGSLLATGSYDGYARIWKTDGRLASTLGQHKGPIFALKWNKCGNYILSAGVDKTTIIWDASTGQCTQQFAFHSAPALDVDWQTNQAFASCSTDQRIHVCRLGVNEPIKTFKGHTNEVNAIKWCPQGQLLASCSDDMTLKIWSMNRDRCCHDLQAHSKEIYTIKWSPTGPGTNNPNTNLILASASFDSTVRLWDVERGSCIHTLTKHTEPVYSVAFSPDGKHLASGSFDKCVHIWSTQTGQLVHSYKGTGGIFEVCWNSKGTKVGASASDGSVFVLDLRKF", "values": [{"measurement": "binding", "setting": "[2]", "result": "binds"}]}
{"molecule": "dHDAC3-HA (protein, UniProt Q7KTS4 1-438) MTDRRVSYFYNADVGNFHYGAGHPMKPQRLAVTHSLVMNYGLHKKMKIYRPYKASAQDMLRFHSDEYIAYLQQVTPQNIQCNSVAYTKYLAHFSVGEDCPVFDGLFDFCAMYTGASLEGAQKLNHNHSDICINWSGGLHHAKKFEASGFCYVNDIVIGILELLKYHPRVLYIDIDVHHGDGVQEAFYLTDRVMTASFHKYGNYFFPGTGDMYEIGAESGRYYSVNVPLKEGIDDQSYFQVFKPIISAIMDFYRPTAIVLQCGADSLAGDRLGCFSLSTKGHGECVKFVKELNVPTLVVGGGGYTLRNVARCWTHETSLLVDQDIENDLPATEYYDFFAPDFTLHPEINSRQDNANSKQYLELIVKHVYENLKMCQHSPSVQMVQTPPDVDLEELRSNREEASDPDVRISVADEDKLVDAKNEFYDGDQDQDKPDSAES", "values": [{"measurement": "binding", "setting": "[1]", "result": "binds"}]}
{"molecule": "in vitro translated radiolabelled dHDAC3 (protein, UniProt Q7KTS4 1-438, 35S-labelled) MTDRRVSYFYNADVGNFHYGAGHPMKPQRLAVTHSLVMNYGLHKKMKIYRPYKASAQDMLRFHSDEYIAYLQQVTPQNIQCNSVAYTKYLAHFSVGEDCPVFDGLFDFCAMYTGASLEGAQKLNHNHSDICINWSGGLHHAKKFEASGFCYVNDIVIGILELLKYHPRVLYIDIDVHHGDGVQEAFYLTDRVMTASFHKYGNYFFPGTGDMYEIGAESGRYYSVNVPLKEGIDDQSYFQVFKPIISAIMDFYRPTAIVLQCGADSLAGDRLGCFSLSTKGHGECVKFVKELNVPTLVVGGGGYTLRNVARCWTHETSLLVDQDIENDLPATEYYDFFAPDFTLHPEINSRQDNANSKQYLELIVKHVYENLKMCQHSPSVQMVQTPPDVDLEELRSNREEASDPDVRISVADEDKLVDAKNEFYDGDQDQDKPDSAES", "values": [{"measurement": "binding", "setting": "[3]", "result": "binds"}]}
{"molecule": "recombinant dHDAC3-his6 (protein, UniProt Q7KTS4 1-438) MTDRRVSYFYNADVGNFHYGAGHPMKPQRLAVTHSLVMNYGLHKKMKIYRPYKASAQDMLRFHSDEYIAYLQQVTPQNIQCNSVAYTKYLAHFSVGEDCPVFDGLFDFCAMYTGASLEGAQKLNHNHSDICINWSGGLHHAKKFEASGFCYVNDIVIGILELLKYHPRVLYIDIDVHHGDGVQEAFYLTDRVMTASFHKYGNYFFPGTGDMYEIGAESGRYYSVNVPLKEGIDDQSYFQVFKPIISAIMDFYRPTAIVLQCGADSLAGDRLGCFSLSTKGHGECVKFVKELNVPTLVVGGGGYTLRNVARCWTHETSLLVDQDIENDLPATEYYDFFAPDFTLHPEINSRQDNANSKQYLELIVKHVYENLKMCQHSPSVQMVQTPPDVDLEELRSNREEASDPDVRISVADEDKLVDAKNEFYDGDQDQDKPDSAES", "values": [{"measurement": "binding", "setting": "[4]", "result": "binds"}]}
